Source: patent publication US6555702B2, “Protein kinase inhibitor” (Calyx Therapeutics, Inc., priority 1997, dated 2003)
Some results were stated once for a whole list of compounds, not compound by compound.

Assay: Solubility (Table A)
Format: physicochemical
Details: solvents in which the compound is soluble

SMILES | SOLUBILITY (listed as compound 2) | SOLUBILITY (listed as compound 5)
N#CC(C#N)=Cc1ccc(C(=O)[O-])cc1.[Na+] [Compound 2, Sodium 1-cyano-3-(4-carboxy-phenyl)-acrylonitrile] | water-soluble | –
N#CC(C#N)=Cc1ccc(OCC(=O)[O-])cc1.[Na+] [Compound 5] | – | water-soluble
